Test results taken from PMC4737156, “Taking a molecular motor for a spin: helicase mechanism studied by spin labeling and PELDOR”.
No constants are given. Whether binding was seen depends on the method and setting.

Legend:
Assay in all cases: PELDOR (pulsed EPR); 70 μM spin-labelled PcrA in D2O buffer (10 mM TES pH 7.4, 500 mM NaCl), alone or with 150 μM hairpin DNA and/or AMP-PNP or ADP with MgCl2, 5% EG-d6; frozen solution, measured at 50 K, X-band; both purified
[1] = biological target: PcrA E74C-V344C, spin labelled with MTSSL (74R1-344R1) (Bacillus stearothermophilus) (UniProt P56255)
[2] = biological target: PcrA E74C-Q506C, spin labelled with MTSSL (74R1-506R1) (Bacillus stearothermophilus) (UniProt P56255)
[3] = biological target: PcrA V344C-Q506C, spin labelled with MTSSL (344R1-506R1) (Bacillus stearothermophilus) (UniProt P56255)

B1: PcrA E74C-V344C, spin labelled with MTSSL (74R1-344R1) (enzyme, UniProt P56255 1-724)
chain: MNFLSEQLLAHLNKEQQEAVRTTEGPLLIMAGAGSGKTRVLTHRIAYLMAEKHVAPWNILAITFTNKAAREMRCRVQSLLGGAAEDVWISTFHSMCVRILRRDIDRIGINRNFSILDPTDQLSVMKTILKEKNIDPKKFEPRTILGTISAAKNELLPPEQFAKRASTYYEKVVSDVYQEYQQRLLRNHSLDFDDLIMTTIQLFDRVPDVLHYYQYKFQYIHIDEYQDTNRAQYTLVKKLAERFQNICAVGDADQSIYRWRGADIQNILSFERDYPNAKVILLEQNYRSTKRILQAANEVIEHNVNRKPKRIWTENPEGKPILYYEAMNEADEAQFVAGRIREACERGERRYRDFAVLYRTNAQSRVMEEMLLKANIPYQIVGGLKFYDRKEIKDILAYLRVIANPDDDLSLLRIINVPKRGIGASTIDKLVRYAADHELSLFEALGELEMIGLGAKAAGALAAFRSQLEQWTQLQEYVSVTELVEEVLDKSGYREMLKAERTIEAQSRLENLDEFLSVTKHFENVSDDKSLIAFLTDLALISDLDELDGTEQAAEGDAVMLMTLHAAKGLEFPVVFLIGMEEGIFPHNRSLEDDDEMEEERRLAYVGITRAEEELVLTSAQMRTLFGNIQMDPPSRFLNEIPAHLLETASRRQAGASRPAVSRPQASGAVGSWKVGDRANHRKWGIGTVVSVRGGGDDQELDIAFPSPIGIKRLLAKFAPIEKV
modifications: MTSSL spin label (R1) on cysteines 74 and 344
- binding [1]: no binding (tested: 70 μM)

B2: PcrA E74C-Q506C, spin labelled with MTSSL (74R1-506R1) (enzyme, UniProt P56255 1-724)
chain: MNFLSEQLLAHLNKEQQEAVRTTEGPLLIMAGAGSGKTRVLTHRIAYLMAEKHVAPWNILAITFTNKAAREMRCRVQSLLGGAAEDVWISTFHSMCVRILRRDIDRIGINRNFSILDPTDQLSVMKTILKEKNIDPKKFEPRTILGTISAAKNELLPPEQFAKRASTYYEKVVSDVYQEYQQRLLRNHSLDFDDLIMTTIQLFDRVPDVLHYYQYKFQYIHIDEYQDTNRAQYTLVKKLAERFQNICAVGDADQSIYRWRGADIQNILSFERDYPNAKVILLEQNYRSTKRILQAANEVIEHNVNRKPKRIWTENPEGKPILYYEAMNEADEAQFVAGRIREAVERGERRYRDFAVLYRTNAQSRVMEEMLLKANIPYQIVGGLKFYDRKEIKDILAYLRVIANPDDDLSLLRIINVPKRGIGASTIDKLVRYAADHELSLFEALGELEMIGLGAKAAGALAAFRSQLEQWTQLQEYVSVTELVEEVLDKSGYREMLKAERTIEACSRLENLDEFLSVTKHFENVSDDKSLIAFLTDLALISDLDELDGTEQAAEGDAVMLMTLHAAKGLEFPVVFLIGMEEGIFPHNRSLEDDDEMEEERRLAYVGITRAEEELVLTSAQMRTLFGNIQMDPPSRFLNEIPAHLLETASRRQAGASRPAVSRPQASGAVGSWKVGDRANHRKWGIGTVVSVRGGGDDQELDIAFPSPIGIKRLLAKFAPIEKV
modifications: MTSSL spin label (R1) on cysteines 74 and 506
- binding [2]: no binding (tested: 70 μM)

B3: PcrA V344C-Q506C, spin labelled with MTSSL (344R1-506R1) (enzyme, UniProt P56255 1-724)
chain: MNFLSEQLLAHLNKEQQEAVRTTEGPLLIMAGAGSGKTRVLTHRIAYLMAEKHVAPWNILAITFTNKAAREMRERVQSLLGGAAEDVWISTFHSMCVRILRRDIDRIGINRNFSILDPTDQLSVMKTILKEKNIDPKKFEPRTILGTISAAKNELLPPEQFAKRASTYYEKVVSDVYQEYQQRLLRNHSLDFDDLIMTTIQLFDRVPDVLHYYQYKFQYIHIDEYQDTNRAQYTLVKKLAERFQNICAVGDADQSIYRWRGADIQNILSFERDYPNAKVILLEQNYRSTKRILQAANEVIEHNVNRKPKRIWTENPEGKPILYYEAMNEADEAQFVAGRIREACERGERRYRDFAVLYRTNAQSRVMEEMLLKANIPYQIVGGLKFYDRKEIKDILAYLRVIANPDDDLSLLRIINVPKRGIGASTIDKLVRYAADHELSLFEALGELEMIGLGAKAAGALAAFRSQLEQWTQLQEYVSVTELVEEVLDKSGYREMLKAERTIEACSRLENLDEFLSVTKHFENVSDDKSLIAFLTDLALISDLDELDGTEQAAEGDAVMLMTLHAAKGLEFPVVFLIGMEEGIFPHNRSLEDDDEMEEERRLAYVGITRAEEELVLTSAQMRTLFGNIQMDPPSRFLNEIPAHLLETASRRQAGASRPAVSRPQASGAVGSWKVGDRANHRKWGIGTVVSVRGGGDDQELDIAFPSPIGIKRLLAKFAPIEKV
modifications: MTSSL spin label (R1) on cysteines 344 and 506
- binding [3]: no binding (tested: 70 μM)
